From PubChem BioAssay AID2551 (National Center for Advancing Translational Sciences (NCATS), 2010)
The whole screen tested about 310,000 compounds, of which about 17,000 (5.5%) were called active. The inconclusive results got no clear call from the source; some entries with a clear call stand among them for comparison. Calls come from the whole dose curve; as a rule, active = well fitted inhibition curve with a large enough effect; inconclusive = small, poorly fitted or top-dose-only effect, or effect the other way; inactive = no such curve, though single readings can be large or run the other way. Potencies beside an inconclusive call are fits to weak or partial responses and may not hold up.

Protein sequences, listed by entry. Tags and fused reporters are not part of them. Lines headed by an entry give the natural chain unless they say otherwise; changes in a name come on top.
UniProt P51450: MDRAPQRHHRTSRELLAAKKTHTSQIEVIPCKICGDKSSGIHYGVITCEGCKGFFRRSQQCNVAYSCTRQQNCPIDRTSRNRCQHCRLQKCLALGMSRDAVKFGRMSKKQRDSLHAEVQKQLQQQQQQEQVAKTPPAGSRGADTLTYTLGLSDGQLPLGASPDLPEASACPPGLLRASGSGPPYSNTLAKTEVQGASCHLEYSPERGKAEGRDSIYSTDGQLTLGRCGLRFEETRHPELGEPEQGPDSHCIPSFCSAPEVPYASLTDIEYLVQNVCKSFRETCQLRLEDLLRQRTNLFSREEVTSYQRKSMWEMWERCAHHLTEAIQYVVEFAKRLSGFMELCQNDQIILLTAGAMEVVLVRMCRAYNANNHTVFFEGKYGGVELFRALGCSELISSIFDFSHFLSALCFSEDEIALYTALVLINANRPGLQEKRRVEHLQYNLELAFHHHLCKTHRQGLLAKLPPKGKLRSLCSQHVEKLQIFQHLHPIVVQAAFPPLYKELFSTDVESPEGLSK

Target: Nuclear receptor ROR-gamma (Mus musculus) (UniProt P51450)
Assay: qHTS for inhibitors of ROR gamma transcriptional activity; note: nearly all actives have a fitted effect of over 60% in size
Details: Drosophila S2 Gal4-RORgamma UAS-luciferase reporter, 20 h; series mostly up to 53.6 µM
Summary of the method: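 Drosophila S2 cells stably expressing Gal4-DBD/mouse RORγ fusion under metallothionein promoter plus UAS-luciferase; compound 1 h, then 700 uM CuSO4 induction for 20 h at ambient temperature; inhibition read as reduced luminescence.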
Potency is the fitted concentration of half-maximal effect.

SMILES	Potency
CCN(CC)c1ccc(/C=N/NC(=O)c2ccccn2)cc1	inconclusive: 22.4 µM [inhibitor, single point]
Cn1sc(=O)c2cc(S(=O)(=O)NC3CC3)ccc21	inconclusive: 15.8 µM [inhibitor, single point]
Cc1onc(-c2ccccc2)c1C(=O)OCCOc1ccccc1F	inconclusive: 35.5 µM [activator, single point]
COc1ccc(CNC(=O)c2sc3nc4c(c(C(F)(F)F)c3c2N)CCC4)cc1	inconclusive: 17.8 µM [activator, single point]
C=CCn1c(O)c(N=Nc2nc3ccccc3c(=O)n2-c2ccccc2)c2ccccc21	inconclusive: 35.5 µM [inhibitor, single point]
C/C(=N\Nc1nc(C)c(C)s1)c1ccc([N+](=O)[O-])cc1	active: 11.2 µM
O=Nc1onc(-c2ccc([N+](=O)[O-])cc2)c1NO	active: 3.55 µM
CCOc1ccc(CN2CCNC(=O)C2CC(=O)NCCc2ccccn2)cc1 (centres undefined)	inactive
COC(=O)c1ccc(NC(=S)NCCc2ccccc2)cc1	inconclusive: 2 µM [inhibitor, single point]
FC(F)(F)c1nc2ccccc2nc1N/N=C/c1ccc(Cl)cc1	active: 5.62 µM
Cc1ccnc(NC(=O)Nc2cccc(F)c2)c1	inconclusive: 31.6 µM [inhibitor, single point]
O=C(Nc1ccccc1)N(CCN1CCOCC1)Cc1ccccc1F	inconclusive: 7.94 µM [activator, partial curve]
O=C(COc1ccccc1Cl)Nc1cc(NC(=O)COc2ccccc2Cl)cc(C(=O)O)c1	inconclusive: 25.1 µM [inhibitor, partial curve, poor fit]
COCCNC(=O)NC(=O)CN1CCCc2ccccc21	inactive
Cc1cccc(N2C(=O)C(O)=C(C(=O)c3cccs3)C2c2ccc(F)cc2)n1 (centres undefined)	inconclusive: 12.6 µM [inhibitor, single point]
O=C1c2cccc3c(O)ccc(c23)C(=O)N1c1ccc(Cl)cc1	inconclusive: 1.26 µM [inhibitor, full curve]
CN(C)c1nc(NCc2ccccc2)nc(N/N=C/c2cccc(Br)c2)n1	active: 3.55 µM
O=C(O)CCNc1nc(-c2ccccc2)c2cc(Br)ccc2n1	inactive
COc1ccc2c(c1OC)C(=O)N1c3ccccc3C(=O)N(c3ccc(F)cc3)C21 (centres undefined)	inactive
Cc1c(C(Nc2ccccn2)c2ccc(Cl)cc2)c(=O)n(-c2ccccc2)n1C (centres undefined)	inactive
CO/N=C(/CNC(=O)c1ccccc1Cl)c1ccc(Cl)cc1	inconclusive: 20 µM [activator, single point]
Cc1cc2cc(CNC(=S)NC3CCCCC3)ccc2n1C	active: 14.1 µM
Nc1ccc(C(=O)Nc2ccccc2C(=O)O)cc1	inactive
CCC(=O)Nc1c(C(=O)Nc2ccc3c(c2)OCCO3)oc2ccccc12	inconclusive: 5.62 µM [activator, full curve]
COc1cccc(/C=N/Nc2ccccc2C(=O)O)c1O	inconclusive: 11.2 µM [inhibitor, single point]

SMILES	Potency
O=C(O)c1nc(NCc2ccccc2)ncc1Cl	inconclusive: 25.1 µM [inhibitor, single point]
Cc1c(-c2cccc(NC(=O)c3cccs3)c2)nc2ncccn12	inconclusive: 11.2 µM [activator, single point]
O=C(NCc1cccnc1)/C(=C/c1ccc(-c2ccc(Cl)cc2)o1)S(=O)(=O)c1ccccc1	inconclusive: 35.5 µM [inhibitor, single point]
Cc1nnc(N/N=C/c2ccccc2O)n1N	active: 1.26 µM
N#Cc1ccc(-c2ccccc2)nc1SCC(=O)c1cccc(Cl)c1	inconclusive: 15.8 µM [inhibitor, single point]
C=CC[n+]1c(-c2ccc(Cl)cc2Cl)csc1Nc1ccc(NC(C)=O)cc1	inconclusive: 10 µM [activator, partial curve]
O=c1n(Cc2ccccc2Cl)c2sc3c(c2c2ncnn12)CCCC3	inactive
CCSc1cc(N2CCCC2)nc(-c2ccccc2Cl)n1	inconclusive: 6.31 µM [activator, single point]
CCOC(=O)c1c(C)oc2ccc(O)c(CN3CCCCC3)c12	inactive
Cc1ccc(OC(=O)COc2ccccc2C)c(-n2nc3ccccc3n2)c1	inconclusive: 2 µM [activator, full curve, poor fit]
Cc1ccc(S(=O)(=O)C2(C(=O)N3CCCCC3C)CC2)cc1 (centres undefined)	inactive
N/C(=N\OC(=O)c1ccccc1Cl)c1ccc(Cl)cc1	inconclusive: 31.6 µM [inhibitor, single point]
COc1cccc(OCc2cc(C(=O)N(Cc3ccccc3)CC3CC3)no2)c1	inconclusive: 31.6 µM [activator, single point]
COc1ccc(CC(=O)Nc2ccc(S(=O)(=O)Nc3cc(C)on3)cc2)cc1	inconclusive: 6.31 µM [inhibitor, full curve, poor fit]
Cc1cc(NC(=O)CCSc2ccc(Cl)cc2)no1	inactive
C/C(=N\NC(=S)NCc1ccccc1)c1cccc(Br)c1	inconclusive: 5.62 µM [inhibitor, single point]
COc1cccc(/C=C2\C(=O)C(=O)c3ccccc32)c1	inactive
CCOc1ccc(-c2nnc(-c3ccccc3)o2)cc1	active: 10 µM
Nc1nc(CN2CCCCCC2)nc(Nc2ccc(F)cc2)n1	inconclusive: 7.08 µM [inhibitor, single point]
COc1ccc(-n2c(=S)[nH]c3ncccc3c2=O)cc1	inconclusive: 8.91 µM [inhibitor, partial curve, poor fit]
Cc1c2cc(O)c(=O)cc-2oc2cc(O)c(O)cc12	inconclusive: 14.1 µM [inhibitor, single point]
NC(=O)N1c2ccccc2CC(=O)c2ccccc21	inactive
CN1C(=O)/C(=N\OC(=O)c2cccc3ccccc23)c2ccccc21	inconclusive: 31.6 µM [inhibitor, single point]
CN1CCN(S(=O)(=O)c2ccc(Sc3nnnn3-c3ccccc3)c([N+](=O)[O-])c2)CC1	active: 7.08 µM
N#C/C(=N\Nc1ccc(Cl)cc1)C(=N)N1CCCCCC1	inconclusive: 20 µM [activator, partial curve, poor fit]

SMILES	Potency
CCc1nnc(NC(=O)CSc2nnc(CSc3nc(C)cc(C)n3)n2C)s1	inactive
CCCOc1cccc(C2/C(=C(/O)c3ccc(OC)cc3)C(=O)C(=O)N2CCN(C)C)c1 (centres undefined)	inactive
O=C(CN1CCC(n2cnc3cc(F)ccc32)CC1)Nc1ccccc1Br	inconclusive: 35.5 µM [inhibitor, single point]
Cc1ccc(CN2CCSc3ccc(C(=O)NCc4ccccn4)cc32)cc1	inconclusive: 35.5 µM [activator, partial curve]
COc1cccc(C(=O)O/N=C(\N)c2ccccn2)c1OC	inconclusive: 35.5 µM [inhibitor, single point]
CCN(CC(O)CON=C1c2ccccc2-c2ccccc21)S(=O)(=O)c1ccc(Cl)cc1 (centres undefined)	inconclusive: 35.5 µM [activator, single point]
CN(C)Cc1c(C(=O)N/N=C/C=C/c2ccccc2)nnn1-c1nonc1N	inconclusive: 1.58 µM [inhibitor, partial curve]
O=C(Nc1cccc([N+](=O)[O-])c1)NC1CCCCCCC1	inconclusive: 5.01 µM [activator, partial curve, poor fit]
O=c1c(CCc2ccccc2)nc2cnc(N3CCNCC3)nc2n1Cc1ccc(F)cc1	active: 4.47 µM
O=C1C2C3c4ccccc4C(c4ccccc43)C2C(=O)N1Cc1ccco1 (centres undefined)	inconclusive: 3.55 µM [inhibitor, single point]
CC(C)c1ccc(C(C)NC(=S)NC2CCCCC2)cc1 (centres undefined)	active: 1.41 µM
CCOc1ccc(S(=O)(=O)N2CCN(c3ccc(C)cc3C)CC2)cc1	inconclusive: 17.8 µM [activator, single point]
CNC(=S)N1CCN=C1Nc1nc(C)cc(C)n1	inconclusive: 12.6 µM [inhibitor, partial curve]
Cc1ccc(C(=O)O)cc1NS(=O)(=O)c1ccc2c(c1)oc(=O)n2C	inactive
COc1ccc(-n2nc(C(=O)NCC(=O)N3CCN(c4cccc(Cl)c4)CC3)c3ccccc3c2=O)c(OC)c1	inconclusive: 2.51 µM [activator, full curve, poor fit]
Cc1cc(C)c(OCC(=O)N2CC=C(c3ccccc3)CC2)c(C)c1	inactive
CCOC(=O)c1ccc(NC(=S)NCCc2ccccc2F)cc1	active: 3.55 µM
c1ccc(-n2cnc3cc(NCc4ccncc4)ccc32)cc1	inconclusive: 22.4 µM [inhibitor, single point]
O=C(NCc1ccco1)c1cc2sccc2n1Cc1ccccc1	inconclusive: 11.2 µM [activator, partial curve, poor fit]
CC(Oc1ccc2ccc(=O)oc2c1)C(=O)NCCN1CCOCC1 (centres undefined)	inactive
O=c1[nH]c(N/N=C\c2ccc3c(c2)OCO3)nc2ccccc12	inconclusive: 11.2 µM [inhibitor, single point]
Cc1ccc(-c2nc(CS(=O)CC(=O)NC3CC3)c(C)o2)cc1 (centres undefined)	inactive
O=C1Nc2ccccc2/C1=C/c1ccccc1Cl	inconclusive: 35.5 µM [activator, single point]
COc1ccccc1N(C(=O)CCl)c1cn(C(C)=O)c2ccccc12	inconclusive: 11.2 µM [inhibitor, partial curve, poor fit]

3 entries from above in a different format.
SMILES,Potency
CCCOc1cccc(C2/C(=C(/O)c3ccc(OC)cc3)C(=O)C(=O)N2CCN(C)C)c1 (centres undefined),inactive
Cc1ccc(CN2CCSc3ccc(C(=O)NCc4ccccn4)cc32)cc1,"inconclusive: 35.5 µM [activator, partial curve]"
O=C(NCc1ccco1)c1cc2sccc2n1Cc1ccccc1,"inconclusive: 11.2 µM [activator, partial curve, poor fit]"
